Source: PubChem BioAssay AID1487 (National Center for Advancing Translational Sciences (NCATS), 2009)
“And” between values parts separate entries of the source, which are not always exact repeats. Equal entries are not always repeated. The list shows a part of the results. These are further read-outs of the screen, such as a control signal, another cell line or another target. No call is given for them. Compounds called inactive in the main read-out are mostly missing here. Words in brackets tell the shape of the fitted curve; partial curves, single points and poor fits give uncertain potencies.

Test: qHTS Assay for Modulators of Lamin A Splicing
Details: HeLa LMNA splicing GFP/RFP minigene ratio, 48 h
How it was run: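 S3 HeLa cells stably expressing lamin A-EGFP splicing minigene plus DsRed2, 600 cells/well, 48 h compound exposure at 37C. Laser-scanning cytometry; analysed as GFP (500-530 nm)/RFP (575-640 nm) total intensity ratio; 0.5% DMSO vehicle.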

[1] = measured here: GFP splicing reporter channel
[2] = measured here: RFP viability control channel

Row | Structure (SMILES) | AC50 [1] | AC50 [2]
1 | C[N+]12CCC(CC1)C(=C(c1ccccc1)c1ccccc1)C2 | 20 µM [rising, partial curve, poor fit] | –
2 | COc1cccc(-n2c(O)c(C=Nc3c(C)n(C)n(-c4ccccc4)c3=O)c(=O)[nH]c2=O)c1 | 0.0282 µM [falling, full curve, poor fit] | 0.0316 µM [falling, full curve, poor fit]
3 | CC[C@@H](CO)NC(=O)[C@@H]1C=C2c3cccc4[nH]cc(c34)C[C@H]2N(C)C1 | 12.6 µM [rising, single point] | 12.6 µM [rising, single point]
4 | CN1/C(=C\C=Nc2ccccc2)C(C)(C)c2ccccc21 | 8.91 µM [rising, partial curve] | 12.6 µM [rising, partial curve]
5 | COc1ccc2oc3c(c2c1)NC(=O)CN=C3c1ccccc1 | 22.4 µM [falling, single point] | –
6 | COc1cc(C2c3cc4c(c(O)c3CC3COC(=O)C32)OCO4)cc(OC)c1OC (stereo not drawn) | 0.891 µM [falling, full curve] | 1.26 µM [falling, full curve]
7 | CCC1(C2=NCCN2)Cc2ccccc2O1 (stereo not drawn) | 0.0708 µM [falling, full curve, poor fit] | –
8 | CCOC(=O)C1(CCc2ccccc2)CCN(C2CCSCC2)CC1 | 0.1 µM [falling, full curve, poor fit] | 0.0891 µM [falling, full curve, poor fit]
9 | Cc1cccc(-n2c(/C=C/c3cccc4ccccc34)nc3ccccc3c2=O)c1 | – | 35.5 µM [rising, single point]
10 | CCOC(=O)c1ncn2c1[C@@H]1CCCN1C(=O)c1cc(OC)ccc1-2 | 8.91 µM [falling, partial curve, poor fit] | 0.00316 µM [falling, full curve, poor fit]
11 | NC(N)=Nc1ccc2[nH]c3c(c2c1)C[C@@]1(O)[C@H]2Cc4ccc(O)c5c4[C@@]1(CCN2CC1CC1)[C@H]3O5 | 3.16 µM [rising, partial curve] | 20 µM [falling, single point]
12 | Cc1ccc(-n2c(/C=C/c3cccc(C(F)(F)F)c3)nc3ccccc3c2=O)cc1 | 0.0112 µM [falling, full curve, poor fit] | –
13 | CCC(C(=O)O)C1CCC(C)C(C(C)C(O)C(C)C(=O)C(CC)C2OC3(C=CC(O)[C@@]4(CC[C@](C)(C5CC[C@@](O)(CC)C(C)O5)O4)O3)C(C)CC2C)O1 (stereo partly drawn) | 0.0316 µM [rising, partial curve] | 0.112 µM [rising, partial curve]
14 | C[N+]12CCC(CC1)[C@@H](OC(=O)C(O)(c1ccccc1)c1ccccc1)C2 | – | 0.000355 µM [rising, full curve, poor fit]
15 | Cc1cc(=O)[nH]c(SCc2nc3ccccc3c(=O)n2-c2ccccc2C)n1 | – | 3.55 µM [rising, partial curve]
16 | CCCCCn1c(=O)c(C(=O)NCc2ccncc2)c(O)c2ccccc21 | 8.91 µM [rising, partial curve, poor fit] | 11.2 µM [rising, partial curve]
17 | Cc1nnc2n1-c1ccc(Cl)cc1C(c1ccccc1)=NC2 | – | 0.0126 µM [rising, full curve, poor fit]
18 | CCn1cc(C(=O)NCc2ccccc2)c2ccccc21 | – | 0.0141 µM [falling, full curve, poor fit]
19 | C[C@H]1O[C@@H](O[C@H]2[C@@H](O)C[C@H](O[C@H]3[C@@H](O)C[C@H](O[C@H]4CC[C@@]5(C)[C@H](CC[C@@H]6[C@@H]5CC[C@]5(C)[C@@H](C7=CC(=O)OC7)CC[C@]65O)C4)O[C@@H]3C)O[C@@H]2C)C[C@H](O)[C@@H]1O | 1.12 µM [rising, full curve] | 1.12 µM [rising, full curve]
20 | CC(C)(C)c1ccc(O)cc1 | – | 0.00316 µM [rising, full curve, poor fit]
21 | O=Cc1c(C(=O)O)n(Cc2ccc(Cl)cc2)c2ccccc12 | 28.2 µM [falling, partial curve] | 35.5 µM [falling, single point]
22 | CCCCN1CCC(O)(c2ccccc2)C(C(=O)c2ccccc2)C1 (stereo not drawn) | – | 15.8 µM [rising, single point]
23 | COc1ccc2c3c1O[C@H]1C[C@@H](O)C=C[C@@]31CCN(C)C2 | 3.16 µM [falling, partial curve] | –
24 | CCCCOc1nc2ccccc2c(=O)n1-c1ccccc1 | 10 µM [rising, partial curve, poor fit] | 11.2 µM [rising, partial curve]
25 | CN(C)c1ccc(/C=C/[N+](=O)[O-])cc1 | – | 35.5 µM [rising, single point]

Row | Structure (SMILES) | AC50 [1] | AC50 [2]
26 | CC(=O)Nc1ccc(S(=O)(=O)N(C)CCOCc2ccccc2)cc1 | – | 12.6 µM [rising, single point]
27 | Cc1ccnc(-n2c(-c3ccco3)nc3ccccc3c2=O)c1 | – | 0.0224 µM [rising, full curve, poor fit]
28 | CCOc1ccc2nc(N3CCC(C(=O)N4CCC5(CC4)OCCO5)CC3)sc2c1 | 20 µM [rising, single point] | 15.8 µM [rising, partial curve]
29 | CCn1c(O)c(C(=O)CC2NCCc3ccccc32)c(=O)n(CC)c1=S (stereo not drawn) | 6.31 µM [rising, partial curve] | 6.31 µM [rising, partial curve]
30 | Clc1ccc(Cl)cc1 | 3.98 µM [falling, partial curve, poor fit] | 35.5 µM [falling, single point]
31 | Cc1cccc(CN2C(=O)CN=C(c3ccccc3Cl)c3cc(Cl)ccc32)c1 | – | 35.5 µM [rising, single point]
32 | COc1cc2c(c(OC)c1OC)-c1ccc(O)c(=O)cc1C(NC(C)=O)CC2 (stereo not drawn) | 0.794 µM [falling, full curve] | 0.891 µM [falling, full curve]
33 | Cn1ccc(NC(=O)CCl)n1 | – | 14.1 µM [falling, partial curve]
34 | COc1ccc(C(=O)CC2(CC(=O)c3ccc(OC)cc3)C(=O)N(C)C(=O)N(C)C2=O)cc1 | 20 µM [rising, single point] | –
35 | Cc1cc(OC(=O)CCNC(=O)OC(C)(C)C)c2c3c(c(=O)oc2c1)CCC3 | 35.5 µM [rising, single point] | 35.5 µM [rising, single point]
36 | C[C@]12CC[C@H]3[C@@H](CCC4=CC(=O)CC[C@@]43C)[C@@H]1CC[C@@H]2C(=O)CO | 12.6 µM [rising, single point] | –
37 | O=c1[nH]oc2c1CCNC2 | 11.2 µM [rising, partial curve, poor fit] | –
38 | O=C(O)CCCCC1SCC2NC(=O)NC21 (stereo not drawn) | – | 0.01 µM [rising, full curve]
39 | C[C@@]12CC[C@H](O)C[C@@H]1CC[C@H]1[C@H]2CC[C@@]2(C)[C@@H](C3=CC(=O)OC3)CC[C@]12O | 2.24 µM [falling, partial curve] | 0.0178 µM [falling, full curve]
40 | CC(=NCCC(c1ccccc1)c1ccccc1)c1c(O)n(C)c(=O)n(C)c1=O | – | 28.2 µM [rising, partial curve]
41 | O=C(CCCN1CCC2(CC1)C(=O)NCN2c1ccccc1)c1ccc(F)cc1 | 12.6 µM [rising, partial curve, poor fit] and 17.8 µM [rising, partial curve, poor fit] and 6.31 µM [falling, partial curve] | 22.4 µM [rising, single point] and 35.5 µM [rising, single point]
42 | O=C1/C(=C/c2ccc([N+](=O)[O-])cc2)N2CCC1CC2 | – | 15.8 µM [rising, single point]
43 | COC[C@H]1OC(=O)c2coc3c2[C@@]1(C)C1=C(C3=O)C2CCC(=O)[C@@]2(C)C[C@H]1OC(C)=O (stereo partly drawn) | 15.8 µM [falling, partial curve] | 11.2 µM [falling, partial curve]
44 | CC(=NC(C)c1ccccc1)c1c(O)[nH]c(=O)[nH]c1=O (stereo not drawn) | – | 0.794 µM [falling, full curve, poor fit]
45 | CC1CCCCN1C(=O)c1ccc(N2CC3CC(C2)c2cccc(=O)n2C3)c([N+](=O)[O-])c1 (stereo not drawn) | – | 20 µM [rising, single point]
46 | Cc1nc2ccccc2c(=O)n1-c1ccc(Br)cc1[N+](=O)[O-] | 0.794 µM [falling, full curve, poor fit] | 0.708 µM [falling, single point]
47 | O=C(Nc1cccnc1)c1c(O)c2c(n(Cc3ccccc3)c1=O)CCCC2 | – | 15.8 µM [rising, single point]
48 | CCn1c(CNC(=O)c2ccc3c(c2)OCO3)nnc1SCC(=O)Nc1cc(C)ccc1OC | – | 20 µM [rising, single point]
49 | N#CCCn1cc(C(=O)NCc2ccccc2)c(-c2ccc3c(c2)OCCO3)n1 | 0.251 µM [rising, full curve, poor fit] | 0.316 µM [rising, full curve]
50 | CC(C)Oc1cccnc1N(C)C1CCN(Cc2ccccc2)CC1 | 3.55 µM [rising, single point] | 1.12 µM [rising, single point]

An excerpt from above in order of SMILES length, low to high.
Row | Structure (SMILES) | AC50 [1] | AC50 [2]
27 | Cc1ccnc(-n2c(-c3ccco3)nc3ccccc3c2=O)c1 | – | 0.0224 µM [rising, full curve, poor fit]
31 | Cc1cccc(CN2C(=O)CN=C(c3ccccc3Cl)c3cc(Cl)ccc32)c1 | – | 35.5 µM [rising, single point]
45 | CC1CCCCN1C(=O)c1ccc(N2CC3CC(C2)c2cccc(=O)n2C3)c([N+](=O)[O-])c1 (stereo not drawn) | – | 20 µM [rising, single point]
